Experimental data as given in paper PMC12771342.
These are yes or no findings as the source states them, for the method shown. In cells and extracts the contact can be indirect. Some results given as binding are weak or reduced against the parent protein; the word gives no strength.

Amino acid sequences for entries named in this document (tags omitted).
UniProt Q8K4Q0: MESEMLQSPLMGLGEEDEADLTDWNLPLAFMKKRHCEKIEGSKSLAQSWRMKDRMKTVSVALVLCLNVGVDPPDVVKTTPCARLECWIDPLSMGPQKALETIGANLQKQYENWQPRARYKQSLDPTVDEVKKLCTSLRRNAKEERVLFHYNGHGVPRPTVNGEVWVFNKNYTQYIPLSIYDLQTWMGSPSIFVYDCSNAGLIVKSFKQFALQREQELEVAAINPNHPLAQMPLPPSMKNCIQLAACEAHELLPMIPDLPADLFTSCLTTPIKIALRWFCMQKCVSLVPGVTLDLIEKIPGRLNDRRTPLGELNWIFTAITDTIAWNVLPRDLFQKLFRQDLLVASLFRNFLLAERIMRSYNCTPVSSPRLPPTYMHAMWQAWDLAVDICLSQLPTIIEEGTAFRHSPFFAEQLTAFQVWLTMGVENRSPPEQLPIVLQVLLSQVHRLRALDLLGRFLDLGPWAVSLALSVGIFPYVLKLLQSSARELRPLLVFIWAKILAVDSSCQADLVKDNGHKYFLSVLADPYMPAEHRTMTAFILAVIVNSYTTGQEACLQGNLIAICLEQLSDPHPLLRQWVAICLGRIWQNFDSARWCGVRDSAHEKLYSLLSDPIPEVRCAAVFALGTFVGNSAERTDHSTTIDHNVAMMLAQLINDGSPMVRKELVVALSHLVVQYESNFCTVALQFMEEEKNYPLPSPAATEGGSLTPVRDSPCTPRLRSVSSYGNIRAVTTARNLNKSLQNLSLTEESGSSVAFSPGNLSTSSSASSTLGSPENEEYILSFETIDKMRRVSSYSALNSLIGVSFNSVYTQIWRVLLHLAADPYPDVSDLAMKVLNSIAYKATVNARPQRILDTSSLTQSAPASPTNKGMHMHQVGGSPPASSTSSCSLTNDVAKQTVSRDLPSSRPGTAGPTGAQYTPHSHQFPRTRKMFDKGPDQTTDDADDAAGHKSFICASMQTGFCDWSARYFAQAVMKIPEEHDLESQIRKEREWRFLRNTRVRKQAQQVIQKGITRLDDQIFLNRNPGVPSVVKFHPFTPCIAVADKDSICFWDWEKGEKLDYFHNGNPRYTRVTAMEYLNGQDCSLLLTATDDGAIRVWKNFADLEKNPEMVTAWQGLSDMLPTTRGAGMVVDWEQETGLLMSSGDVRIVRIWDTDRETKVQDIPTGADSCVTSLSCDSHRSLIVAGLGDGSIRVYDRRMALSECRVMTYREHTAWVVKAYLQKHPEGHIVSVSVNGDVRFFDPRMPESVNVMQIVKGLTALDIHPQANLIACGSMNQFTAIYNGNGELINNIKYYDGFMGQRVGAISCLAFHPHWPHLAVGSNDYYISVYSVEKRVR
UniProt P28033: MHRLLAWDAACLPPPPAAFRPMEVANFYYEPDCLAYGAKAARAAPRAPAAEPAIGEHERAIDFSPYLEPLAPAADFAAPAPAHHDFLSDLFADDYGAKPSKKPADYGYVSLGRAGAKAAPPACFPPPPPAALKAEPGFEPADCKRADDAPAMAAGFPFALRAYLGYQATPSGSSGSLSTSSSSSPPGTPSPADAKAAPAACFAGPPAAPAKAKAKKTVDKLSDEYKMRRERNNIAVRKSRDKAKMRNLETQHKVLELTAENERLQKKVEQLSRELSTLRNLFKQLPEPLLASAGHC

Biological target: Raptor (mouse (endogenous in cardiac macrophages of BALB/c mice)) (UniProt Q8K4Q0)
Experiment: co-IP; immunoprecipitation of Raptor, immunoblot for total and phosphorylated C/EBPβ; cardiac macrophages from Con, Rap, EAM and EAM + Rap mice

CCAAT/enhancer-binding protein beta (from UniProt P28033 1-296)
binding: binds
